Test results taken from publication doi:10.1101/2025.05.21.655431 (bioRxiv, 2025).
Results are given in words; binding and its absence hold for the method and conditions named. For some of these results: Binding seen in cells or lysates may run through a third protein. Some results given as binding are weak or reduced against the parent protein; the word gives no strength. For some of these results: Sequences can lack the tags named with a protein.

Sequences of proteins named here, by UniProt entry; tags and fusion partners are left off.
UniProt Q9FGZ4: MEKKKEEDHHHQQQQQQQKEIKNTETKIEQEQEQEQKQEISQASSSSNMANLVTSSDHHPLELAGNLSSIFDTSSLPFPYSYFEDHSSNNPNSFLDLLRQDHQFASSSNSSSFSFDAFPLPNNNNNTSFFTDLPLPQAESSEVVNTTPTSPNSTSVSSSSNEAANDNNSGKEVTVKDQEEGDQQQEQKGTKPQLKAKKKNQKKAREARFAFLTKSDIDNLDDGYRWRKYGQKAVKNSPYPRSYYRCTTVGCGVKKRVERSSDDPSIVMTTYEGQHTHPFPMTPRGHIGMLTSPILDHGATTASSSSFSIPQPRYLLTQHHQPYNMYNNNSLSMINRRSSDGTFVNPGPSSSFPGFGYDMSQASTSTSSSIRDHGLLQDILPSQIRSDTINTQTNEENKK

Experiments:
[1] = molecular target: T1, MPK3 (endogenous, Arabidopsis) (Arabidopsis thaliana (endogenous in Arabidopsis leaves)) (UniProt Q39023); assay: co-IP
T1 sequence: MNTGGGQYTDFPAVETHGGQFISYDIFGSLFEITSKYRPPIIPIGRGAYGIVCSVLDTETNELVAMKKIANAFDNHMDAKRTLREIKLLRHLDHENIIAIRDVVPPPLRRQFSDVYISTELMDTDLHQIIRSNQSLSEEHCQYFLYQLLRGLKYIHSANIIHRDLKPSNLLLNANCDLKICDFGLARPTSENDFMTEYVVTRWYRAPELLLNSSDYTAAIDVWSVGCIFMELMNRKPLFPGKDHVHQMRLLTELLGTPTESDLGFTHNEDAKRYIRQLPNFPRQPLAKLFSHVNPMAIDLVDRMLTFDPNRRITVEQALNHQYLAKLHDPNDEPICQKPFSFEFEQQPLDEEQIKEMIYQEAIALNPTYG

[2] = molecular target: T2, MPK3-nEYFP (BiFC fusion) (Arabidopsis thaliana) (UniProt Q39023); assay: split reporter
T2 sequence: T1 sequence

[3] = molecular target: T3, MPK3-nluc (split luciferase fusion, pCAMBIA1300-nluc-MPK3) (Arabidopsis thaliana) (UniProt Q39023); assay: split reporter
T3 sequence: T1 sequence

[4] = molecular target: WRKY48 (pGBKT7-WRKY48, yeast two-hybrid bait) (Arabidopsis thaliana) (UniProt Q9FGZ4); assay: two-hybrid

In the case of “WRKY48-GFP (35S::WRKY48-GFP) (from UniProt Q9FGZ4 1-399)”, the binding [1] is reported as “binds”.

For “WRKY48-cEYFP (BiFC fusion) (from UniProt Q9FGZ4 1-399)”, the binding [2] was “binds”.

For “WRKY48-cluc (split luciferase fusion, pCAMBIA1300-cluc-WRKY48) (from UniProt Q9FGZ4 1-399)”, the binding [3] was “binds”.

B1: GST-MPK3 (recombinant) (enzyme, Arabidopsis thaliana, UniProt Q39023 1-370, looked up)
chain: T1 sequence
For B1, the binding [4] was “binds”.
